# Measured values from article PMC9130998, “Paclitaxel binds and activates C5aR1: A new potential therapeutic target for the prevention of chemotherapy-induced peripheral neuropathy and hypersensitivity reactions” (Cell Death & Disease, 2022).
# The chains behind the UniProt entries cited, without tags or fusion partners. Where a name states a change or a piece, a line headed by the entry shows the natural chain unless it says otherwise. Residues count along the entry.
# UniProt P01031, residues 678-751: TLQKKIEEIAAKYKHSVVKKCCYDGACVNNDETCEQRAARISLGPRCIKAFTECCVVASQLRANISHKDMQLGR
# UniProt P21730: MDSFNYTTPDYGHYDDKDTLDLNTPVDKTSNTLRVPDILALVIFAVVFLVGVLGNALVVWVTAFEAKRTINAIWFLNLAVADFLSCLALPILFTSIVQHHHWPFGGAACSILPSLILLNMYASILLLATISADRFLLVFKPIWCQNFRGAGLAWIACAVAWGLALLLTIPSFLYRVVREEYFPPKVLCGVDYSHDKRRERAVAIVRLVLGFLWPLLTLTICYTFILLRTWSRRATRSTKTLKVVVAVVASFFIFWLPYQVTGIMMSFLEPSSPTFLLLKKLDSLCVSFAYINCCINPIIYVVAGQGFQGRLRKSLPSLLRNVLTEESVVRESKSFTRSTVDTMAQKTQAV
# Tests used:
# [1] = target: complement C5a des-Arg, Human (human) (UniProt P01031); experiment: SPR; BIAcore X100; C5a (1913 RU) or C5a des-Arg (1520 RU) amine-coupled to a CM5 sensorchip; C5aR1 (50 nM) co-injected with increasing concentrations of paclitaxel; both purified
# [2] = target: human recombinant C5a (human) (UniProt P01031); experiment: as above
substance,measurement,setting,value
recombinant human complement component 5a receptor 1 (C5aR1) with a C-terminal c-Myc tag (from UniProt P21730),binding,[1],binds
same,binding,[2],binds

# Results are given in words; binding and its absence hold for the method and conditions named. A result given as binding can be weak or reduced; the word gives no strength.
